No constants are given. Whether binding was seen depends on the method and setting. For some of these results: In cells and extracts the contact can be indirect. Some entries that bind do so weakly or less than the wild type. For some of these results: Where a sequence is shown, tags or fusion partners need not be part of it. Blank lines part the entries; values can stand above or below the substance they belong to.
Assays:
[1] = target: myc-tagged full-length palmitoyl acyl transferase zinc-finger DHHC type containing 17 (zD17) (UniProt Q8IUH5); assay: co-immunoprecipitation, HEK293 cells
[2] = target: myc-tagged full-length palmitoyl acyl transferase zinc-finger DHHC type containing 17 (zD17) (UniProt Q8IUH5); assay: co-immunoprecipitation, HEK293 cells (GFP-JNK3 in anti-myc zD17 immunoprecipitates)
[3] = target: FLAG-MKK7 wt (UniProt O14733); assay: co-immunoprecipitation, HEK293 cells
[4] = target: myc-tagged full-length palmitoyl acyl transferase zinc-finger DHHC type containing 17 (zD17) (UniProt Q8IUH5); assay: in vitro affinity binding assay with purified proteins
[5] = target: T1, GST-zD17 190-210 (motif-E fused with GST) (UniProt Q8IUH5); assay: purified GST fusions incubated with JNK3
T1 sequence (looked up): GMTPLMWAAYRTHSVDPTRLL

Amino acid sequences for entries named in this document (tags omitted).
UniProt O14733: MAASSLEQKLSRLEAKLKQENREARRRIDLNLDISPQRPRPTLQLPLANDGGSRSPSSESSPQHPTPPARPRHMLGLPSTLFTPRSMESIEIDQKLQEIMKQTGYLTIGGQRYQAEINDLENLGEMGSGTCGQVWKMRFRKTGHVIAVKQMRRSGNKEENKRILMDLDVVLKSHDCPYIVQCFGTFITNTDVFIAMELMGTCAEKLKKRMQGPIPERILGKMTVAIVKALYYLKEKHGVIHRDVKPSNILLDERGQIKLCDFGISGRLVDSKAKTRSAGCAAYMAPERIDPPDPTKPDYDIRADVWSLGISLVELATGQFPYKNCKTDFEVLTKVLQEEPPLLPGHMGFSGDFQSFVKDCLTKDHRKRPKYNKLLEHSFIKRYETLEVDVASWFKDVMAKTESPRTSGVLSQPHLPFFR
UniProt P45983: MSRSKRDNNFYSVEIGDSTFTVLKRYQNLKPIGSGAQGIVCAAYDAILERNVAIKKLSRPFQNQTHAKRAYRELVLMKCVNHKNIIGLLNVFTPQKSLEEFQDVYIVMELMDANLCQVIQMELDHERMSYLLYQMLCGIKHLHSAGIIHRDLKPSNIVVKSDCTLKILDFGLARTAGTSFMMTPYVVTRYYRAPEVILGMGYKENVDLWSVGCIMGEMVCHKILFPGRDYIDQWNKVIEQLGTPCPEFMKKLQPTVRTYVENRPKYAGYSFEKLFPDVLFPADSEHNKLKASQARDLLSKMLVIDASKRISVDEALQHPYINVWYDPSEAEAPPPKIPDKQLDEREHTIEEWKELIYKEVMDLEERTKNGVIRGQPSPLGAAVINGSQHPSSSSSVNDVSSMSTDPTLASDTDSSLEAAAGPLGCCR
UniProt P53779: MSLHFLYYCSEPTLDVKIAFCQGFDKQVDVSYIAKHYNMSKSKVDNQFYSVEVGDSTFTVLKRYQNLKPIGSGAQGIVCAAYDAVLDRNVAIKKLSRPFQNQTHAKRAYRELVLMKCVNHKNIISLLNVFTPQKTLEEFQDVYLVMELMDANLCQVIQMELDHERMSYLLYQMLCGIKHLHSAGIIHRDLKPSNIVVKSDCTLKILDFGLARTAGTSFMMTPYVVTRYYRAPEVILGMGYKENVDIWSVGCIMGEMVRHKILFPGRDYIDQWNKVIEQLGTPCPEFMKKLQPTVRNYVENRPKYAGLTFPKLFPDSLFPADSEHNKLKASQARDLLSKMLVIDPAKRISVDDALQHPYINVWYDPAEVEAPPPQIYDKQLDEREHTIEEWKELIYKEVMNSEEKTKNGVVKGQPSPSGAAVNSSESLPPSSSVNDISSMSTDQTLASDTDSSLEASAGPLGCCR

[6] = target: GST-zD17 1-310 (cytosolic domain CD1) (UniProt Q8IUH5); assay: affinity binding of purified JNK3 to blotted GST-tagged cytosolic domains

Substance: GFP-JNK1 expressed in HEK293 cells (from UniProt P45983 1-427) (enzyme)
binding [1]: binds

Substance: GFP-JNK3 (c-jun N-terminal kinase 3) expressed in HEK293 cells (from UniProt P53779 1-464) (enzyme)
binding [2]: binds

Substance: GFP-JNK2 expressed in HEK293 cells (from UniProt P45984 1-424) (enzyme)
binding [1]: binds

Results, then the substance that gave them:

binding [3]: binds
Substance: myc-tagged full-length palmitoyl acyl transferase zinc-finger DHHC type containing 17 (zD17) (from UniProt Q8IUH5 1-632) (enzyme)

binding [4]: binds
binding [5]: binds
binding [6]: binds
Substance: purified JNK3 (GST-JNK3 from E. coli, GST removed with thrombin) (from UniProt P53779 1-464) (enzyme)
